Holding throughout (assay): affinity purification with mass spectrometry
Experiment [1] addresses T1, SHA-tagged BAG2 I160A (human (HEK293T cDNA)) (UniProt O95816).
T1 sequence: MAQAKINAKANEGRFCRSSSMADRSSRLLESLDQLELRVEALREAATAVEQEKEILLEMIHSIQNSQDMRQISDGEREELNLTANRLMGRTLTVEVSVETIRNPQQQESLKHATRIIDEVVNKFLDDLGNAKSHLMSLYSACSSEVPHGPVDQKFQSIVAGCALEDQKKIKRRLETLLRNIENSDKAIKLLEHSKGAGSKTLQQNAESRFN

Amino acid sequences for entries named in this document (tags omitted). Residues count along the entry.
UniProt Q9C0C7: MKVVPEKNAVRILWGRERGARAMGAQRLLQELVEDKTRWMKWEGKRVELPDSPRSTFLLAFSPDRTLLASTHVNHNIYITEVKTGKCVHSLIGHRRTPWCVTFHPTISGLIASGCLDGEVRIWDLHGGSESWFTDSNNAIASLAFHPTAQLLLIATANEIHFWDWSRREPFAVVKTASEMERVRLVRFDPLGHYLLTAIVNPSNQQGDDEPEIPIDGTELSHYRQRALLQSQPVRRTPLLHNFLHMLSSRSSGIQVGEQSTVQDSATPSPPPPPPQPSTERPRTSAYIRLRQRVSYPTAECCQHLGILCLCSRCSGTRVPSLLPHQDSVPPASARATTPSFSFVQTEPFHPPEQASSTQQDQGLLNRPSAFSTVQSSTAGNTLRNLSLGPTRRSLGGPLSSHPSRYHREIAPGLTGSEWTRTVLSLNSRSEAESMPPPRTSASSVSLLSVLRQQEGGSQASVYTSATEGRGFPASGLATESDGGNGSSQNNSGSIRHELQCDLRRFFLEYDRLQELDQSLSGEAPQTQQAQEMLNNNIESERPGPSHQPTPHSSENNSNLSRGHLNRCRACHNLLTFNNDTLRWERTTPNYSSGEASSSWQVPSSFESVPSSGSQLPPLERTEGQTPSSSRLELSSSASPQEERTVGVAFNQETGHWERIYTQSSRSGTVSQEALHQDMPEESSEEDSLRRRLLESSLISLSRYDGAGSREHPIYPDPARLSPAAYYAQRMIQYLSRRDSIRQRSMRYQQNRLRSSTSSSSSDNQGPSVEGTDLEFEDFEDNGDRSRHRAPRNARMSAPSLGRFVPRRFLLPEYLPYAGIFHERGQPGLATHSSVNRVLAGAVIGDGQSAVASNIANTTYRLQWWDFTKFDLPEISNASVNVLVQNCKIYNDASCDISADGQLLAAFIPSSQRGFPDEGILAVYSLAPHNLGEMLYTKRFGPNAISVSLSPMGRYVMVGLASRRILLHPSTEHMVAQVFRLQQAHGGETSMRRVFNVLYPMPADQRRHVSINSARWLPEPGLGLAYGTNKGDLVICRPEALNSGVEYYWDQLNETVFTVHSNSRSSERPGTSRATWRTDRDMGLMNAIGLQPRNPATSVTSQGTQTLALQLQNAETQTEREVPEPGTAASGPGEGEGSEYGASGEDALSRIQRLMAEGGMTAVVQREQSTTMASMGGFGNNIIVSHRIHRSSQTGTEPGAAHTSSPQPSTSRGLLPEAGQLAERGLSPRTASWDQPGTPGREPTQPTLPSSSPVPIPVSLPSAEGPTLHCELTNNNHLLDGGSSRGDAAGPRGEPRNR
UniProt P34932: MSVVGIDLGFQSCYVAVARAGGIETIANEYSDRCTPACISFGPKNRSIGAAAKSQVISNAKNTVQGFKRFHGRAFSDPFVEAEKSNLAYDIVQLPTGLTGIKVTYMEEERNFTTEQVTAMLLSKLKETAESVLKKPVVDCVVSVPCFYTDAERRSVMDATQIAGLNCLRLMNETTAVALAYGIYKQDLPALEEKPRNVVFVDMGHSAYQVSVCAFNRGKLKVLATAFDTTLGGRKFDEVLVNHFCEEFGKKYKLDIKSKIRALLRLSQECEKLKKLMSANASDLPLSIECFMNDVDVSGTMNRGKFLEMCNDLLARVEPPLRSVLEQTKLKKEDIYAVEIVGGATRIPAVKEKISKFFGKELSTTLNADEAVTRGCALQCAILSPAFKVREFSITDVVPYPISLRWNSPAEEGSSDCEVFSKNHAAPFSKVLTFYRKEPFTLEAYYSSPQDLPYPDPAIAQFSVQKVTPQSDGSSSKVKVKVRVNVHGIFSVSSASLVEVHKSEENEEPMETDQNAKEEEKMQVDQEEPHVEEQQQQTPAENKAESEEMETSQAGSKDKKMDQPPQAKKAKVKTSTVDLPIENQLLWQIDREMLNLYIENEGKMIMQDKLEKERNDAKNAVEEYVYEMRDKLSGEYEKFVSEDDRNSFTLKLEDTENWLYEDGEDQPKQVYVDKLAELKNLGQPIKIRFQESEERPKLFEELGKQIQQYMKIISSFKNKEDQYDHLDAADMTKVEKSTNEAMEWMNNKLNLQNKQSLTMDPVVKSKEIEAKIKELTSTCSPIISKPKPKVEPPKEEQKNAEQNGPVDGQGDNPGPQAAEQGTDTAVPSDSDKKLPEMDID
UniProt P38646, residues 47-679: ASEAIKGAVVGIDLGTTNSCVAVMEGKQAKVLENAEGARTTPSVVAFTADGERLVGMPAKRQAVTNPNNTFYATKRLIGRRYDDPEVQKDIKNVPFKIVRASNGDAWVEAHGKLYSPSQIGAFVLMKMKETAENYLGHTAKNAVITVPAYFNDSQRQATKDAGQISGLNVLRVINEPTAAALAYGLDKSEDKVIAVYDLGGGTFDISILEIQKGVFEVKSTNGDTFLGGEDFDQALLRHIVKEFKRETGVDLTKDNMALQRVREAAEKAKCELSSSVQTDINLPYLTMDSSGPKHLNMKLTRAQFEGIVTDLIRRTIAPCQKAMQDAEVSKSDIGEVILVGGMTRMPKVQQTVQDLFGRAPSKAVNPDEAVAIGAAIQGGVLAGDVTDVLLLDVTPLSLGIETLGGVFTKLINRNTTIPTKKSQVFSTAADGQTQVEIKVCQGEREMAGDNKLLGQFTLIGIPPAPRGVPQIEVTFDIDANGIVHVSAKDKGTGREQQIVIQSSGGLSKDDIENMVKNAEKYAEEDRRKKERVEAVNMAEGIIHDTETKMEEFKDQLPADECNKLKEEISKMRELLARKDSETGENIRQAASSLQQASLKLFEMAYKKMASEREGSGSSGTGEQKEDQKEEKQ

For experiment [2], the target named is SHA-tagged BAG2 wild type (human (HEK293T cDNA)) (UniProt O95816).
The target in experiment [3] is Activating molecule in BECN1-regulated autophagy protein 1 (AMBRA1), endogenous (human (endogenous in HeLa)) (UniProt Q9C0C7).
For experiment [4], the target named is T1, SHA-tagged BAG2 I160A (human (HEK293T cDNA)). This is another data set of the same source.
Experiment [5] deals with T2, SHA-tagged BAG2 S31E (human (HEK293T cDNA)) (UniProt O95816).
T2 sequence: T1 sequence with S31E, A160I

Experiment [6] addresses SHA-tagged BAG2 wild type (human (HEK293T cDNA)) (UniProt O95816). The source holds these as a separate data set.

Changes are numbered by the printed parent chain. Where two headings read alike, the source gives them in different places. These are yes or no findings as the source states them, for the method shown. Binding seen in cells or lysates may run through a third protein. These calls come from enrichment with a bait or labelling near it, and not all partners need be listed. For some assays here: Sequences can lack the tags named with a protein.

In the case of “HSPA4, endogenous (from UniProt P34932 1-840)”, the binding result in experiment [1] and in experiment [2] was “binds” each time.
Turning to “Bcl-2-associated athanogene 2 (BAG2), endogenous (from UniProt O95816 1-211)”, in experiment [3], the binding entry was “binds”.
As for “HSPA9, endogenous (from UniProt P38646 47-679)”, the binding result in experiment [1] and in experiment [2] was “binds” throughout.

B1: chloride ion channel CLCC1, endogenous (protein, UniProt Q96S66 19-551)
chain: HDDDWIDPTDMLNYDAASGTMRKSQAKYGISGEKDVSPDLSCADEISECYHKLDSLTYKIDECEKKKREDYESQSNPVFRRYLNKILIEAGKLGLPDENKGDMHYDAEIILKRETLLEIQKFLNGEDWKPGALDDALSDILINFKFHDFETWKWRFEDSFGVDPYNVLMVLLCLLCIVVLVATELWTYVRWYTQLRRVLIISFLFSLGWNWMYLYKLAFAQHQAEVAKMEPLNNVCAKKMDWTGSIWEWFRSSWTYKDDPCQKYYELLLVNPIWLVPPTKALAVTFTTFVTEPLKHIGKGTGEFIKALMKEIPALLHLPVLIIMALAILSFCYGAGKSVHVLRHIGGPESEPPQALRPRDRRRQEEIDYRPDGGAGDADFHYRGQMGPTEQGPYAKTYEGRREILRERDVDLRFQTGNKSPEVLRAFDVPDAEAREHPTVVPSHKSPVLDTKPKETGGILGEGTPKESSTESSQSAKPVSGQDTSGNTEGSPAAEKAQLKSEAAGSPDQGSTYSPARGVAGPRGQDPVSSPCG
B1: the binding result in experiment [4], in experiment [5] and in experiment [6] was “binds” each time.

Source of the values: doi:10.1101/2023.12.08.570815.
